According to publication PMC8755526:
Results are given in words; binding and its absence hold for the method and conditions named. Binding seen in cells or lysates may run through a third protein.

Molecular target: full-length, wild-type PLK1 (Flag-, Myc- or V5-tagged) (human) (UniProt P53350)
Assay: co-IP; HEK293T cells co-transfected with differently tagged constructs; lysates incubated with Protein G Sepharose and the tag-specific antibody overnight at 4 °C, washed 3x with 20 mM Tris-HCl pH 8.2, 150 mM NaCl, 1% Triton X-100; western blot; also in cells treated with Bora siRNA

B1: LAT (protein, UniProt O43561 1-262)
chain: MEEAILVPCVLGLLLLPILAMLMALCVHCHRLPGSYDSTSSDSLYPRGIQFKRPHTVAPWPPAYPPVTSYPPLSQPDLLPIPRSPQPLGGSHRTPSSRRDSDGANSVASYENEGASGIRGAQAGWGVWGPSWTRLTPVSLPPEPACEDADEDEDDYHNPGYLVVLPDSTPATSTAAPSAPALSTPGIRDSAFSMESIDDYVNVPESGESAEASLDGSREYVNVSQELHPGAAKTEPAALSSQEAEEVEEEGAPDYENLQELN
binding: no binding
